doi:10.1101/2023.04.21.537835

Protein sequences, listed by entry. Tags and fused reporters are not part of them. Residues count along the entry.
UniProt Q07113, residues 36-2483: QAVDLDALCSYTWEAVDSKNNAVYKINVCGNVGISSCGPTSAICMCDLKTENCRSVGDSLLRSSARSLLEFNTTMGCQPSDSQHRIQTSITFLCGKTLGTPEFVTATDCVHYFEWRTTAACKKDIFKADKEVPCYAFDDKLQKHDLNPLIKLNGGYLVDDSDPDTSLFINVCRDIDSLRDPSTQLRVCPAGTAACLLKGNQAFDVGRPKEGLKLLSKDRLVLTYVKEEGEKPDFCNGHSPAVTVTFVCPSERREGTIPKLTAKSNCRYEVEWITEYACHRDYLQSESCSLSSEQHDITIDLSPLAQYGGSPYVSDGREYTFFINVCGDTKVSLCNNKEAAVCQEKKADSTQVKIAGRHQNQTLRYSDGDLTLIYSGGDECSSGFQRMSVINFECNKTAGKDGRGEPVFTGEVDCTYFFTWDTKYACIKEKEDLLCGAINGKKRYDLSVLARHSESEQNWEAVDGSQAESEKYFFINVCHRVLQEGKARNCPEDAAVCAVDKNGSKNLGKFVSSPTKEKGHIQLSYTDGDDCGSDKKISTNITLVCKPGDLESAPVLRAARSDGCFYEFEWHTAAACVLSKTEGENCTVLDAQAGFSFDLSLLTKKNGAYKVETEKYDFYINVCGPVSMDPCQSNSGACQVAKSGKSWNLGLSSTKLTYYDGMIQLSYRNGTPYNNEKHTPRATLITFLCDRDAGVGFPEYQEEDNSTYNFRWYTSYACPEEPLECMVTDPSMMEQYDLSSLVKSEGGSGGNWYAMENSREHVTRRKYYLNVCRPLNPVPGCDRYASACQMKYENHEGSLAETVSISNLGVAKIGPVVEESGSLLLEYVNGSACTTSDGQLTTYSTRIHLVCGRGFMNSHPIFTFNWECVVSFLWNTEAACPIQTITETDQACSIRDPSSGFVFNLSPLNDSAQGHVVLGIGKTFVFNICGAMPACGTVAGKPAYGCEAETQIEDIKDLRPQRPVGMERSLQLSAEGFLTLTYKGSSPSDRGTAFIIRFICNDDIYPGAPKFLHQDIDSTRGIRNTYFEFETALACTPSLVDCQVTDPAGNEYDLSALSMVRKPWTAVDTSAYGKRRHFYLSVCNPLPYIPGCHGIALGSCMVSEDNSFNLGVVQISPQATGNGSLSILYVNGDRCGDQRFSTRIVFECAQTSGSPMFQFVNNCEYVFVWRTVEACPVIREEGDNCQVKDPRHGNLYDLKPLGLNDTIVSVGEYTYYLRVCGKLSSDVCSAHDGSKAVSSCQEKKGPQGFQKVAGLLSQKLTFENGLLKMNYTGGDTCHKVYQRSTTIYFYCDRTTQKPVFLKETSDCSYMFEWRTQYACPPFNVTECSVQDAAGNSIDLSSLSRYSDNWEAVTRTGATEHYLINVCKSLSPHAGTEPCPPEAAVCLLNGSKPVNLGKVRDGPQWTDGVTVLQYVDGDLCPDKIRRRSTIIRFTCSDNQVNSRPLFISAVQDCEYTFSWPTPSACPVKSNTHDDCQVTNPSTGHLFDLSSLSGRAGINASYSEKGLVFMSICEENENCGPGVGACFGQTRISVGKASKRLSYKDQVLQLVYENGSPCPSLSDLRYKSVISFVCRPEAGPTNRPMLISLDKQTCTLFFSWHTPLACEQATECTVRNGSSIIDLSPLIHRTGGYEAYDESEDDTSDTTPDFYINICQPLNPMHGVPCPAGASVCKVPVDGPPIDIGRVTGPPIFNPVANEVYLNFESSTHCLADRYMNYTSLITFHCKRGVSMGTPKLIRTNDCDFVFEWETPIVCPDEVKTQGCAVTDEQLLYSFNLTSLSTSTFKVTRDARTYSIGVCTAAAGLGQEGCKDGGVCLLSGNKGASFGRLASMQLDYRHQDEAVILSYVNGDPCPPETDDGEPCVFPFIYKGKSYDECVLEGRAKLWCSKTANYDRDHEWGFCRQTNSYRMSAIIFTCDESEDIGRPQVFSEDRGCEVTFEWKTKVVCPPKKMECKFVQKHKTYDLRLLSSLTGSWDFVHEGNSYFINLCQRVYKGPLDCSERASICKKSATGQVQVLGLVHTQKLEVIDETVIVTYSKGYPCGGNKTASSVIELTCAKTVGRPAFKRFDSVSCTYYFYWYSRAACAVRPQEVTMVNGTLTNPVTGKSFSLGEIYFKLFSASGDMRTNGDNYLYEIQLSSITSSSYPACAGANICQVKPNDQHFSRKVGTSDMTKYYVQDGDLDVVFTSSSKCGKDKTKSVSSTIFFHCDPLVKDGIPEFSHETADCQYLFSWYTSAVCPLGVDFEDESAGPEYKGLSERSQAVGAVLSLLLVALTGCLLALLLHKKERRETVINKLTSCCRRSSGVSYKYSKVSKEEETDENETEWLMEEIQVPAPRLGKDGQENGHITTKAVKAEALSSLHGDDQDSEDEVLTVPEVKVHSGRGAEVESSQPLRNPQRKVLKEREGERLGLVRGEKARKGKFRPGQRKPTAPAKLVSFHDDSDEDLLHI
UniProt O35744, residues 22-398: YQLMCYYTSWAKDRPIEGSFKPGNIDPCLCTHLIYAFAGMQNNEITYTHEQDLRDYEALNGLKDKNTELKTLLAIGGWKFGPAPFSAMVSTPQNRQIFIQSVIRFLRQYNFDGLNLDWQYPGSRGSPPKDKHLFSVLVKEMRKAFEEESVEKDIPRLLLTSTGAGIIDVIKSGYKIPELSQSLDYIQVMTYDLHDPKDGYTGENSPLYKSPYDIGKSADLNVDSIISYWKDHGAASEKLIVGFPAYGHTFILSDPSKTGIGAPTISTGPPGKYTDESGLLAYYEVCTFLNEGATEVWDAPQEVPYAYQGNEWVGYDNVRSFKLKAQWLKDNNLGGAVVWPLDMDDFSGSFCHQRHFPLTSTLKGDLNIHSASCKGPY

molecular target: insulin-like growth factor 2 receptor (IGF2R) (mouse (endogenous in heart grafts)) (UniProt Q07113); experiment: affinity purification with mass spectrometry

| Molecule | binding |
| --- | --- |
| Chil3 (Chi3l3) (from UniProt O35744 22-398) | binds |
| S100a9 (protein, UniProt P31725 1-113) MANKAPSQMERSITTIIDTFHQYSRKEGHPDTLSKKEFRQMVEAQLATFMKKEKRNEALINDIMEDLDTNQDNQLSFEECMMLMAKLIFACHEKLHENNPRGHGHSHGKGCGK | binds |

Now from value to molecule:

| binding | Molecule |
| --- | --- |
| binds | Ltf (protein, UniProt P08071 20-707) KATTVQWCAVSNSEEEKCLRWQNEMRKVGGPPLSCVKKSSTRQCIQAIVTNRADAMTLDGGTMFDAGKPPYKLRPVAAEVYGTKEQPRTHYYAVAVVKNSSNFHLNQLQGLRSCHTGIGRSAGWKIPIGTLRPYLNWNGPPASLEEAVSKFFSKSCVPGAQKDRFPNLCSSCAGTGANKCASSPEEPYSGYAGALRCLRDNAGDVAFTRGSTVFEELPNKAERDQYKLLCPDNTWKPVTEYKECHLAQVPSHAVVSRSTNDKEEAIWELLRQSQEKFGKKQASGFQLFASPSGQKDLLFKESAIGFVRVPQKVDVGLYLTFSYTTSIQNLNKKQQDVIASKARVTWCAVGSEEKRKCDQWNRASRGRVTCISFPTTEDCIVAIMKGDADAMSLDGGYIYTAGKCGLVPVLAENQKSSKSNGLDCVNRPVEGYLAVAAVRREDAGFTWSSLRGKKSCHTAVDRTAGWNIPMGLLANQTRSCKFNEFFSQSCAPGADPKSNLCALCIGDEKGENKCAPNSKERYQGYTGALRCLAEKAGNVAFLKDSTVLQNTDGKNTEEWARNLKLKDFELLCLDDTRKPVTEAKNCHLAIAPNHAVVSRTDKVEVLQQVLLDQQVQFGRNGQRCPGEFCLFQSKTKNLLFNDNTECLAKIPGKTTSEKYLGKEYVIATERLKQCSSSPLLEACAFLTQ |
| binds | Ngp (protein, UniProt O08692 22-167) LRQLRYEEIVDRAIEAYNQGRQGRPLFRLLSATPPSSQNPATNIPLQFRIKETECTSTQERQPKDCDFLEDGEERNCTGKFFRRRQSTSLTLTCDRDCSREDTQETSFNDKQDVSEKEKFEDVPPHIRNIYEDAKYDIIGNILKNF |

Results are given in words; binding and its absence hold for the method and conditions named. In cells and extracts the contact can be indirect. A yes stands for co-enrichment or nearness to the bait. Other partners may have been found.
